PubChem BioAssay AID1159578 | Peter MacCallum Cancer Centre, 2015
Screen: 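Genome-wide hunt for genes controlling movement of lymphatic endothelial cells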 (primary screen). Cell system: human lymphatic endothelial cells. Knock-down reagent: siRNA pool against human genes, 40 nM. Timing: 48 h after transfection. Measured: 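High-content imaging of dye-stained cells in a scratch assay measures filled wound area and nuclei per well; duplicate means given as ratio to mock and robust z-score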. Scale: migration robust z-score: higher = faster migration into the scratch; migration relative to mock: higher = more scratch area covered than mock; nuclei per well: higher = more cells in the well. Hit rule: 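Migration changed when robust z exceeds 2 or falls below -2 and mean nuclei number is at least 3300; otherwise not called changed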. Calls: active = migration changed; inactive = no migration change, or too few cells.
The deposit covers about 18,000 reagents; this is a part drawn at random. About 1,030 of all reagents (5.7%) were called active. 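Inactive calls also include pools with fewer than 3300 nuclei, whose migration was not assessed.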 Raw values are not corrected between plates. The numbers tell different reagents against one gene apart.

no.	gene	reagent no.	migration robust z-score	migration class with cell-count check	migration relative to mock	nuclei per well, duplicate mean	activity call
1	STXBP2	1	0.94	migration z between -2 and 2; enough cells	1.13	5720	inactive
2	DIAPH3	1	0.6	migration z between -2 and 2; enough cells	0.92	5848	inactive
3	PFN2	1	0.56	migration z between -2 and 2; enough cells	1.03	6154	inactive
4	SNRPC	1	-0.21	migration z between -2 and 2; enough cells	0.83	5780	inactive
5	KCNA2	1	-0.05	migration z between -2 and 2; enough cells	0.8	6046	inactive
6	CHST1	1	-1.43	migration z between -2 and 2; enough cells	0.53	3382	inactive
7	SLCO4A1	1	0.57	migration z between -2 and 2; enough cells	0.92	6472	inactive
8	EIF3D	1	0.96	migration z between -2 and 2; enough cells	0.99	6043	inactive
9	LLGL1	1	-0.32	migration z between -2 and 2; enough cells	0.8	5636	inactive
10	AHNAK	1	-1.87	migration z between -2 and 2; enough cells	0.4	5569	inactive
11	GARIN4	1	-1.39	migration z between -2 and 2; enough cells	0.52	3968	inactive
12	TBX5	1	-0.24	migration z between -2 and 2; enough cells	0.76	7482	inactive
13	CD300LB	1	2.24	migration z above 2; enough cells	1.47	6006	active
14	CFAP74	1	0.05	migration z between -2 and 2; enough cells	0.9	4375	inactive
15	CFAP74	2	-1.38	migration z between -2 and 2; enough cells	0.52	6484	inactive
16	IL36G	1	0.81	migration z between -2 and 2; enough cells	1.1	6134	inactive
17	SYCP2L	1	-2.54	migration z below -2; enough cells	0.23	6160	active
18	FOXP2	1	0.46	migration z between -2 and 2; enough cells	0.9	6558	inactive
19	AP1S2	1	-0.05	migration z between -2 and 2; enough cells	0.87	6010	inactive
20	SMAGP	1	0.45	migration z between -2 and 2; enough cells	1	5137	inactive
21	FBF1	1	0.13	migration z between -2 and 2; enough cells	0.92	6523	inactive
22	TPPP2	1	0.4	migration z between -2 and 2; enough cells	0.99	4496	inactive
23	BBS4	1	0.07	migration z between -2 and 2; enough cells	0.9	5098	inactive
24	TRIM45	1	0.32	migration z between -2 and 2; enough cells	0.86	5948	inactive
25	PANK4	1	-0.39	migration z between -2 and 2; enough cells	0.73	5086	inactive
26	C4orf17	1	0.52	migration z between -2 and 2; enough cells	1.02	5190	inactive
27	ZNF302	1	0.52	migration z between -2 and 2; enough cells	1.02	5280	inactive
28	CAMK1G	1	0.15	migration z between -2 and 2; enough cells	0.84	5408	inactive
29	EMX1	1	0.21	migration z between -2 and 2; enough cells	0.84	5787	inactive

Records listed so far whose target name begins with A or a (2):
gene	reagent no.	migration robust z-score	migration class with cell-count check	migration relative to mock	nuclei per well, duplicate mean	activity call
AHNAK	1	-1.87	migration z between -2 and 2; enough cells	0.4	5569	inactive
AP1S2	1	-0.05	migration z between -2 and 2; enough cells	0.87	6010	inactive

Continued.
no.	gene	reagent no.	migration robust z-score	migration class with cell-count check	migration relative to mock	nuclei per well, duplicate mean	activity call
30	SLC27A2	1	-0.76	migration z between -2 and 2; enough cells	0.66	6290	inactive
31	DBNL	1	0.8	migration z between -2 and 2; enough cells	1.09	5306	inactive
32	TESC	1	-0.75	migration z between -2 and 2; enough cells	0.69	4650	inactive
33	PLEKHA6	1	0.24	migration z between -2 and 2; enough cells	0.94	5865	inactive
34	CT47A10	1	-1.27	migration z between -2 and 2; enough cells	0.55	5658	inactive
35	KRT6B	1	3.06	migration z above 2; enough cells	1.68	6798	active
36	STMN4	1	-1.3	migration z between -2 and 2; enough cells	0.55	5776	inactive
37	FOXI1	1	-0.62	migration z between -2 and 2; enough cells	0.68	5530	inactive
38	CD44	1	0.69	migration z between -2 and 2; enough cells	1.06	6440	inactive
39	PAGR1	1	-1.27	migration z between -2 and 2; enough cells	0.55	5980	inactive
40	PSG6	1	-0.17	migration z between -2 and 2; enough cells	0.84	4330	inactive
41	ULK2	1	0.11	migration z between -2 and 2; enough cells	0.82	5176	inactive
42	TXNDC9	1	-1.47	migration z between -2 and 2; enough cells	0.51	3804	inactive
43	SNTG1	1	1.28	migration z between -2 and 2; enough cells	1.21	5482	inactive
44	TBC1D3G	1	-0.73	migration z between -2 and 2; enough cells	0.7	6466	inactive
45	ZNF669	1	-3.52	under 3300 nuclei; migration not judged	-0.05	2224	inactive
46	IGF2	1	0.34	under 3300 nuclei; migration not judged	0.87	3134	inactive
47	CLEC2B	1	-0.68	migration z between -2 and 2; enough cells	0.71	5790	inactive
48	KRTAP9-4	1	-3.9	under 3300 nuclei; migration not judged	-0.12	2733	inactive
49	OSBPL10	1	0.78	migration z between -2 and 2; enough cells	1.09	5845	inactive
50	NRSN2	1	-0.07	migration z between -2 and 2; enough cells	0.86	5330	inactive
51	POFUT1	1	0.08	migration z between -2 and 2; enough cells	0.82	6582	inactive
52	GRK6	1	-3.21	under 3300 nuclei; migration not judged	0.18	3298	inactive
53	OCIAD1	1	0.48	migration z between -2 and 2; enough cells	1.01	6056	inactive
54	DDX39A	1	1.53	migration z between -2 and 2; enough cells	1.1	5863	inactive
55	UGDH	1	0.28	migration z between -2 and 2; enough cells	0.86	6411	inactive
56	RALGAPB	1	-1.79	migration z between -2 and 2; enough cells	0.42	5376	inactive
57	LCN10	1	0.78	migration z between -2 and 2; enough cells	1.09	4840	inactive
